Results on five molecules are retold here after publication PMC12448893.

Sequences of proteins named here, by UniProt entry; tags and fusion partners are left off.
UniProt Q13547: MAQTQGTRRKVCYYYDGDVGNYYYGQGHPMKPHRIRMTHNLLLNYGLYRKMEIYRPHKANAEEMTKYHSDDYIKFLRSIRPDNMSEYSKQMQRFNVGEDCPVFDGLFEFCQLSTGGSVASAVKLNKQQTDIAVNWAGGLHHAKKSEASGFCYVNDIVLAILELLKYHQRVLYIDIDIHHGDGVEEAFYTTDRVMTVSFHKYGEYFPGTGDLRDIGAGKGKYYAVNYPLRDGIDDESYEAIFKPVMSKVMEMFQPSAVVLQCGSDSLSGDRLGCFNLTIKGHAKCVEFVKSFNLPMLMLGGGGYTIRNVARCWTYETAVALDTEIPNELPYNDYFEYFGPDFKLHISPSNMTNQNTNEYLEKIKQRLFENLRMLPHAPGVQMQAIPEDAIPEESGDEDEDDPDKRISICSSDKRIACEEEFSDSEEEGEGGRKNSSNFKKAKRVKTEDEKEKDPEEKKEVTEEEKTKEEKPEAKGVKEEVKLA

Results are given in words; binding and its absence hold for the method and conditions named. In cells and extracts the contact can be indirect. Here binding means that the protein was enriched with, or labelled near, the bait; the list need not be complete.

The chains are these.
B1: TRERF1 (endogenous, mouse ESCs) (protein, UniProt Q8BXJ2 1-1205)
chain: MGDQQLYKTNHVGHGGENLFYQQPPLGVHSGLGHSYGNTISGAGMDAPQASPISPHFPQDTRDGLGLPIGSKNLGQMDTSRQGGWGSHAGPGNHVQLRSNLANSNMMWGTPTQVEPADGYQYTYSQASEIRTQKLTSGVLHKLDSFTQVFANQNLRIQVNNMAQVLHTQSAVMDGASDSALRQLLSQKPVEPSASAIASRYQQVPQQPHPGFTGGLPKPALPVGQHAPQGHLYYDYQQPLAQMSMQGGQPLQAPQVLSGHMQQLQQHQYYPQPPPQQQQAGLQRISVQEMQQQQQPQQIRPSPPQQQQQLQLQQRQSSLQIPQYYQPQPMMQHLQEQQQPSMHLQPPSYHRDPHQYTPEQAHAVQLIQLGSMPQYYYQEPQQAYSHPLYPQSHLSQHQQREDGQLKTYSSDRQTPAMLSSHGDMGTSDTGVADPASSEMTRVTSTLPHQPLLSPSGIHLNNMGSQHQQPPSPSAMWPQMHLPDGRAQSGSPESSSGQTKGVFGEQFDAKNKLTCSICLKEFKSLPALNGHMRSHGGMRASPSLKQEEGEKAPPPQPQPQPQPQQPLPPPPPPPPPPQLPPEAERLTPMVMPVSVPVKLIPPKPSSQGFTNSVAATPAARDKPASSMSDDEMPVLEIPRKHPPIAAKVEEPLKNLPEKKKFRHRPEPLFIPPPPSSYTPNPTSYSGATLYQSQLRSPRILGDHLLLDPAHELPPYTPPPMLSPVRQGSGLFSNVLISGHGPGVHPQLPLTPLTPTPRVLLCRSSSIDGSNVTVTPGPGEQTVDVEPRINIGLRFQAEIPELQDVSALAQDTHRATLVWKPWPELENQALQQQVENLLNLCCSSALPGGGTNSEFALHSLFEAKGDVMATLEMLLLRKPVRLKCHPLANYHYAGSDKWTSLERKLFNKALATYSKDFIFVQKMVKSKTVAQCVEYYYTWKKIMRLGRKHRTRLAEIIDDCMTSEEEEEAEEEEEDPEEDRKSIKEEESEVAKSPEPPPAPALAPTEGPPMQAVGQQPSGNFICEMPNCGAVFSSRQALNGHARIHGGTNQVAKTRGAIPSGKQKPGGTQSGYCSVKSSPSHSTTSGETDPTTIFPCKECGKVFFKIKSRNAHMKTHRQQEEQQRQKAQKAAFAAEMAATIERTTGPVGAPELLPLDQLSLMKPVKDVDILDDDVVQQLGVMDEAEVVGTDLLLDDQDSVLLQGDTEL
B2: O-GlcNAc transferase (OGT) (endogenous, mouse ESCs) (protein, UniProt Q8CGY8 1-1046)
chain: MASSVGNVADSTEPTKRMLSFQGLAELAHREYQAGDFEAAERHCMQLWRQEPDNTGVLLLLSSIHFQCRRLDRSAHFSTLAIKQNPLLAEAYSNLGNVYKERGQLQEAIEHYRHALRLKPDFIDGYINLAAALVAAGDMEGAVQAYVSALQYNPDLYCVRSDLGNLLKALGRLEEAKACYLKAIETQPNFAVAWSNLGCVFNAQGEIWLAIHHFEKAVTLDPNFLDAYINLGNVLKEARIFDRAVAAYLRALSLSPNHAVVHGNLACVYYEQGLIDLAIDTYRRAIELQPHFPDAYCNLANALKEKGSVAEAEDCYNTALRLCPTHADSLNNLANIKREQGNIEEAVRLYRKALEVFPEFAAAHSNLASVLQQQGKLQEALMHYKEAIRISPTFADAYSNMGNTLKEMQDVQGALQCYTRAIQINPAFADAHSNLASIHKDSGNIPEAIASYRTALKLKPDFPDAYCNLAHCLQIVCDWTDYDERMKKLVSIVAEQLEKNRLPSVHPHHSMLYPLSHGFRKAIAERHGNLCLDKINVLHKPPYEHPKDLKLSDGRLRVGYVSSDFGNHPTSHLMQSIPGMHNPDKFEVFCYALSPDDGTNFRVKVMAEANHFIDLSQIPCNGKAADRIHQDGIHILVNMNGYTKGARNELFALRPAPIQAMWLGYPGTSGALFMDYIITDQETSPAEVAEQYSEKLAYMPHTFFIGDHANMFPHLKKKAVIDFKSNGHIYDNRIVLNGIDLKAFLDSLPDVKIVKMKCPDGGDNPDSSNTALNMPVIPMNTIAEAVIEMINRGQIQITINGFSISNGLATTQINNKAATGEEVPRTIIVTTRSQYGLPEDAIVYCNFNQLYKIDPSTLQMWANILKRVPNSVLWLLRFPAVGEPNIQQYAQNMGLPQNRIIFSPVAPKEEHVRRGQLADVCLDTPLCNGHTTGMDVLWAGTPMVTMPGETLASRVAASQLTCLGCLELIAKSRQEYEDIAVKLGTDLEYLKKIRGKVWKQRISSPLFNTKQYTMELERLYLQMWEHYAAGNKPDHMIKPVEVTESA
B3: MIDEAS (endogenous, mouse ESCs) (protein, UniProt E9Q2I4 1-1089)
chain: MNLQAQSKAQSKRKRCPFGDQEPAAKEQPPPLQSPPQSLRAKEEQYGAHEGPTGVASTTQPVELSPPNNLALLNSVVYGSERTTAAMLSQQAQVSSVKWPSSVMAPGRGLERGGGGGISDSGWQQQPGQPPPHSTWNHLPLYGGPKGSPHPGVGVPPYYNHPEALKGNKPGGPQLDHYGNAVQPMVPQKVQLEVGRPQAPLNSFHAAKKPPNQTLPLQPFQLAFGHQVNRQVFRQGPQPSNPTASFPPQKQQQQQQPAALPQMQLFENYYPMHQLPSQQHQDFGLAPGGPLGQTHLAHRSMAPYPFSHNPDMNPELRKALLQDPASQPVLPQPQMAFPRRSRRLSKEGILPSNSLDGAGTQPGQEPASNLFLHHWSLPQPPPGTLGQPHSEALGFPLELRESQMLADGDRLAPNGREREPPAMGNEEVMRAGGLGDCGQMIRSGVIQSTKRRRRVSQEANLLTLAQKAVELASMQDANGSEEKRKSVLATTSRCGVEFSEPALAAKRAREESGMVPLIIPVSVPVRTVGPTEVAQVGGADEDGTGLEQYPTEHKPSVIVTRRRSTRVPGTDAAAQAEDLNVKLEGEPSMRKPKQRPRPEPLIIPTKAGTFIAPPVYSNITPYQSHLRSPVRLADHPSERSFEPPPYTPPPILSPVREGSGLYFNAIISTSNIPAPPPITPKSAHRTLLRSNSSEVTPPVLSVMGEATPVSIEPRINVGTRFQAEIPMMRDRALAAFDPHKADLVWQPWEHLESSWEKQRQVDDLLTAACSSIFPGAGTNQELALHYLHESRGDILEALNKLLLRKPLRPHNHPLATYHYTGSDQWKTAERKLFNKGIAIYKKDFFLVQKLIQTKTVAQCVEFYYTYKKQVKIGRNGTLTFGDLDIGDEKSGQEEVEVDVKTSQKFPRVPPPRRESPSEERLEPKREVTEPRKEGEEEVPDTQEKGEQEEGRERCRRAAAVKATQTLQANEAANDVLILRSHEPNAPGSAGIQTSEKPREGPGKSRRALPFTEKKKKAEAFNKTQNQENTFPCKKCGRVFYKVKSRSAHMKSHAEQEKKAAALRLKEKEAAAAAAHQQALREESGEGEKG
B4: ZMYM2 (endogenous, mouse ESCs) (protein, UniProt Q9CU65 1-1376)
chain: MDTSSVGTLELTDQTPVLLGSTAMATSLTNVGNSFSGPPNPLVSRSSKFQNSSVEDDDDVVFIEPVQPPPSSAPLVADQRPITFTSSKNEELQGNDPKILPSSKELAPQKGSVSETIVIDDEEDMETNQGQEKSSSNFIERRPSETKNRTNDVDFSSSTFSRSKVNAGVSNSGITTEPDSEIQIANVTTLETGVSSVSDGQLESTDGRDMNLMITHVTSLHNTSLGDGSNGLQSSNFGVNIQTYTPSLTSQTKAGVGPFNPGRMNVAGDVFQNGESAPHHNPDSWISQSASFPRNQKQQGVDSLSPVASLPKQIFQPSNQQPTKPVKVTCANCKKPLQKGQTAYQRKGSAHLFCSTTCLSSFSHKPAPKKLCVMCKKDITTMKGTIVAQVDSSESFQEFCSTSCLSLYEDKQSPAKGALNKSRCTICGKLTEIRHEVSFKNMTHKLCSDHCFNRYRMANGLIMNCCEQCGEYLPSKGAGNNVLVVDGQQKRFCCQSCVTEYKQVGSHPSFLKEVRDHMQDSFLMQPEKYGKLTTCTGCRTQCRFFDMTQCIGPNGYMEPYCSTACMNSHKTKYAKSQSLGIICHFCKRNSLPQYQATMPDGKLYNFCNSSCVAKFQALSMQSSPNGQFVAPSDIQLKCNYCKNSFCSKPEILEWENKVHQFCSKTCSDDYKKLHCIVTYCEYCQEEKTLHETVNFSGVKRPFCSEGCKLLYKQDFARRLGLRCVTCNYCSQLCKKGATKELDGVVRDFCSEDCCKKFQEWYYKAARCDCCKSQGTLKERVQWRGEMKHFCDQHCLLRFYCQQNEPNMTTQKGPENLHYDQGCQTSRTKMTGSAPPPSPTPNKEMKNKAILCKPLTMTKATYCKPHMQTKSCQTDENWKTEYVPVPIPVPVYVPVPMHMYSQNIPVPTTVPVPVPVPVFLPAPLDSSEKIPATVEDLKSKVSSDPLDSELLTMTDMMTEEEGKAEASNINSVIIETDIIGSDLTKNSDPDIQSNMPDVPYEPDLDIEIDFPRAAEELDMENEFLLPPVFGEEYEEQPRPRSKKKGTKRKAVSGYQSHDDSSDNSECSFPFKYTYGVNAWKHWVKTRQLDEDLLVLDELKSSKSVKLKEDLLSHTTAELNYGLAHFVNEIRRPNGENYAPDSIYYLCLGIQEYLCGSNRKDNIFIDPGYQMFEQELNKILRSWQPSILPDGSIFSRVEEDYLWRIKQLGSHSPVALLNTLFYFNTKYFGLKTVEQHLRLSFGTVFRHWKKNPLTMENKACLRYQVSSLCGTDNEDKIATGKRKHEDDEPVFEQVENTANPSRCPVKMFECYLSKSPQNLNQRMDVFYLQPECSSSTDSPVWYTSTSLDRNTLENMLVRVLLVKDIYDKDNYELDEDTD
B5: SAP30 (endogenous, mouse ESCs) (protein, UniProt O88574 1-220)
chain: MNGFTPEEMSRGGDAAAAVAAVVAAAAAAASAGNGNAAGGGAEVPGAGAVSASGPPGAAGPGPGQLCCLREDGERCGRAAGNASFSKRIQKSISQKKVKIELDKSARHLYICDYHKNLIQSVRNRRKRKGSDDDGGDSPVQDIDTPEVDLYQLQVNTLRRYKRHFKLPTRPGLNKAQLVEIVGCHFKSIPVNEKDTLTCFIYSVRNDKNKSDLKADSGVH

For the test, the target named is HDAC1-Flag (wild type), stably expressed in Hdac1/2 double knockout mouse ESCs (UniProt Q13547). As to the kind of experiment: affinity purification with mass spectrometry; Flag IP (anti-Flag on Protein G Dynabeads) of HDAC1-Flag WT, Y48E or E63R from extracts of Hdac1/2 DKO mouse ESCs 5 days after OHT; coIP buffer 250 mM NaCl, 20 mM Tris-HCl pH 7.5, 0.5% IGEPAL, 1 mM EDTA; 4°C overnight; LC-MS/MS; control DKO cells lacking a Flag epitope.
As for B1, the binding entry is “binds”.
With B2 the entry was “binds”; with B3, “binds”.
Take B4: the binding entry is “binds”.
With B5 the entry was “binds”.
